Results are given in words; binding and its absence hold for the method and conditions named. Some entries that bind do so weakly or less than the wild type.
Molecular target: GPNMB (CG56972), native full-length protein on the cell surface or in cell lysates (human) (UniProt Q14956)
Assay: FACS, UACC-62 cells, Ab 1 ug/mL

By UniProt entry, the sequences of proteins in these tests, tags left out. Where a name states a change or a piece, a line headed by the entry shows the natural chain unless it says otherwise.
UniProt Q14956: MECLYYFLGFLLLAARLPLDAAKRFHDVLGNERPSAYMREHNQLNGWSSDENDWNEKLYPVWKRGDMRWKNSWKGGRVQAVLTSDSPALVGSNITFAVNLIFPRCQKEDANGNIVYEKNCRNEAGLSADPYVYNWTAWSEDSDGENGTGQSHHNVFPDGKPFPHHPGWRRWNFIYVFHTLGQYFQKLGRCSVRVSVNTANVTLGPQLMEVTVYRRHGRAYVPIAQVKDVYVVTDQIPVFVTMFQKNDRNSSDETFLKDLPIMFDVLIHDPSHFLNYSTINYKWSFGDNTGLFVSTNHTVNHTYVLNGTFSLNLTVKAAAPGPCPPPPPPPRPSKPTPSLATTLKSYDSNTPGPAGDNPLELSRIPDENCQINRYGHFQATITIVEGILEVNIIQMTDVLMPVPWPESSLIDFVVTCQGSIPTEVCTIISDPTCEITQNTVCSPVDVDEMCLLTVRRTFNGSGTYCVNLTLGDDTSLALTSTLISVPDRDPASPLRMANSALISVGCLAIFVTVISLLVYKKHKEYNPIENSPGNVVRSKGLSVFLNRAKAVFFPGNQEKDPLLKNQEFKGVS

- binding: binds
B1: Mab2.22.1 (antibody, human IgG2, V domains shown)
VH: QVQLEQSGPGLVKPSQNLSLTCTVSGGSISSGGYFWSWIRQHPGKGLEWIGYIYYSGNTYYNPSLKSRVTISVDTSKNQFSLKLSSVTAADTAVYYCARDYYYDTSGFSYRYDWYYGMDVWGQGTTVTVSS
VL: DIQLTQSPSSLSASVGDRVTITCRASQGIRNDLGWYQQKPGKAPKRLIYAASSLQNGVPSRFSGSGSGTEFTLTISSLQPEDFATYYCLQHNTYPAFGQGTKVEIKR

Source: US20160311919A1
